Assay results as given in article PMC12507903.
No constants are given. Whether binding was seen depends on the method and setting. Binding seen in cells or lysates may run through a third protein. Some entries that bind do so weakly or less than the wild type.

Chains of the proteins cited; added tags and fusions are not shown.
UniProt P10242: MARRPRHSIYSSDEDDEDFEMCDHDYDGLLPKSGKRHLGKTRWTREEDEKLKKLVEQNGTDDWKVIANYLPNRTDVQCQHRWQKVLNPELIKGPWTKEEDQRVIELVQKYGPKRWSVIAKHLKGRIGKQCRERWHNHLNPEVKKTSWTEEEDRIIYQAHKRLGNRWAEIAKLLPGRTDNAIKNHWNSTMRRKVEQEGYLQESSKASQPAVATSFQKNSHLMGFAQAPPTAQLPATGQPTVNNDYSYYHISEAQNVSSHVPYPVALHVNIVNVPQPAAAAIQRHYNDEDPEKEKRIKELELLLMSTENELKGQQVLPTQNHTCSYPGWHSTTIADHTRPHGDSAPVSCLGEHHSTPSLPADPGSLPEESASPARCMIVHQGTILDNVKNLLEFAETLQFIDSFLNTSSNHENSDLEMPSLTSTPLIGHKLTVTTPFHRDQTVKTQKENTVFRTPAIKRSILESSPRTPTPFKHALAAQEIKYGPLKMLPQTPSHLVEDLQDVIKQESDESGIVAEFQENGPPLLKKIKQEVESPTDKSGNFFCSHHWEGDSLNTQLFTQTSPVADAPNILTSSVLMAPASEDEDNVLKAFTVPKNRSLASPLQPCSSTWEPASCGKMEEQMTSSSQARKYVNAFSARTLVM

Molecular target: c-Myb (human (endogenous in ADSCs)) (UniProt P10242)
Assay: co-IP; cells lysed in IP buffer, anti-c-Myb antibody (CST) with protein A/G agarose beads, eluted in SDS sample buffer, immunoblot

B1: Aurora kinase A (enzyme, UniProt O14965 1-403)
chain: MDRSKENCISGPVKATAPVGGPKRVLVTQQFPCQNPLPVNSGQAQRVLCPSNSSQRIPLQAQKLVSSHKPVQNQKQKQLQATSVPHPVSRPLNNTQKSKQPLPSAPENNPEEELASKQKNEESKKRQWALEDFEIGRPLGKGKFGNVYLAREKQSKFILALKVLFKAQLEKAGVEHQLRREVEIQSHLRHPNILRLYGYFHDATRVYLILEYAPLGTVYRELQKLSKFDEQRTATYITELANALSYCHSKRVIHRDIKPENLLLGSAGELKIADFGWSVHAPSSRRTTLCGTLDYLPPEMIEGRMHDEKVDLWSLGVLCYEFLVGKPPFEANTYQETYKRISRVEFTFPDFVTEGARDLISRLLKHNPSQRPMLREVLEHPWITANSSKPSNCQNKESASKQS
For B1, the binding was “binds”.
